This passage reports binding results from paper doi:10.1101/2020.06.24.169185.

Chains of the proteins cited; added tags and fusions are not shown.
UniProt P48432: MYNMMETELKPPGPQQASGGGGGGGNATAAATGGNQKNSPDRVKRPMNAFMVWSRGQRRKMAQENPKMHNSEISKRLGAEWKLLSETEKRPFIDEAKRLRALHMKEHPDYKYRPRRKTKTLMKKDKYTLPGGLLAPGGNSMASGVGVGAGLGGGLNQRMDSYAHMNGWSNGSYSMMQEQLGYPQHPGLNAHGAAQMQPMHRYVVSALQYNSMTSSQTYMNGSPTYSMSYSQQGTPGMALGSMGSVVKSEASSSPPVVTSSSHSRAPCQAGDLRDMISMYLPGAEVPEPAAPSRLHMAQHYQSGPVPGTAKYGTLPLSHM

The target of the experiment is T1, (FLAG)3-Nanog (UniProt Q80Z64).
T1 sequence: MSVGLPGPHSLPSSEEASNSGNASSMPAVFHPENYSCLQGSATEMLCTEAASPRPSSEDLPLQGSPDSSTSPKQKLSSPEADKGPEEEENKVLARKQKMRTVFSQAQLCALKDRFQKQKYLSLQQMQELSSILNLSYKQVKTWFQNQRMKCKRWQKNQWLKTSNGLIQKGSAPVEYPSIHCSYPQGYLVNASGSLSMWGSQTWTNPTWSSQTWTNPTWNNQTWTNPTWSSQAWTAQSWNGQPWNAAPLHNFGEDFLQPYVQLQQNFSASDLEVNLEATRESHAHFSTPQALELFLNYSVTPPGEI
In words: co-IP.

These are yes or no findings as the source states them, for the method shown. In cells and extracts the contact can be indirect. Some binding calls cover weakened binding; strength is not graded here. Sequences can lack the tags named with a protein.

As for GFP-Sox2 (from UniProt P48432 1-319), the binding result is “binds”. For the substance “mCherry-Sox2 (from UniProt P48432 1-319)”, the binding result is “binds”.
